This passage reports cell number change and AC50 results from PubChem BioAssay AID2685 (National Center for Advancing Translational Sciences (NCATS), 2010).

The other results are listed elsewhere or left out. Shown are side measurements of this screen, not its main read-out; they come without a call. The list favours compounds with an active or inconclusive main result. The note in brackets gives the kind of curve behind each potency; many fits are weak. Where a SMILES comes first, the peptide text is derived from it. [ ]: non-standard residue; d: D form. The star is where a group is joined. ξ: configuration not given here. ξPhe(4-Me) = Cc1ccc(CC(N)C(=O)O)cc1; Bz = O=C(c1ccccc1)*

The assay can be described thus: qHTS Assay for Lipid Storage Modulators in Drosophila S3 Cells.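 For cell number change: cells counted by Cell Tracker Red CMTPX staining in the red channel.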 The note with it: BODIPY lipid droplet fluorescence, 18-24 h; for cell number change: measured here: cell count max response, cells fed with added oleic acid. A digest of the protocol: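 Laser-scanning cytometry quantifies lipid droplet accumulation (500–530 nm total intensity; droplet/cell object ratio) in oleic acid-fed (400 uM added) Drosophila S3 cells treated with a concentration series. 20 uM Triacsin C defined 100% inhibition.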

The mark [1] stands for this setting: measured here: lipid fluorescence (Fed channel) AC50, cells fed with added oleic acid.
The mark [2] stands for this setting: measured here: cell number channel AC50, cells fed with added oleic acid.

One may read the AC50 as the concentration giving half of the maximal activity seen. `COc1ccc(CNC(=O)Cc2nn(C)c(=O)c3ccccc23)cc1`: the cell number change is -28.6%. In addition, the half-maximal activity concentration (AC50) under setting [1] is 10.3 µM [falling, partial curve].

Regarding `CCOn1c(=O)c[n+]([O-])c2ccccc21`, the AC50 is 0.146 µM [falling, full curve] under setting [2] and 3.66 µM [falling, partial curve] under setting [1]. Regarding `Nc1nc(Cl)cc(Oc2ccccc2F)n1`, the cell number change was determined as 8.98%. The half-maximal activity concentration (AC50) under setting [1] is 0.259 µM [falling, full curve, poor fit]. As for `Cc1cc(NC(=O)c2ccccc2F)n(C(C)(C)C)n1`, the cell number change was 30.8%. Moreover, the AC50 under setting [2] is 0.184 µM [rising, partial curve, poor fit]. For `CCS(=O)(=O)N1CCC(NC(C)=O)(c2ccccc2)CC1`, the cell number change was -11.4%. As for `CCN(C(=O)Cn1c(=O)oc2ccccc21)C1CCS(=O)(=O)C1` (configuration not stated), the cell number change is -109%. Further, the AC50 under setting [2] was 8.2 µM [falling, partial curve]. As to `CCNC(=O)C1CCCN1S(=O)(=O)c1ccc(OC)cc1` (configuration not stated), the cell number change was -59.2%. In addition, the AC50 under setting [2] was 29.1 µM [falling, single point]. Further, under setting [1], the half-maximal activity concentration (AC50) is 29.1 µM [falling, single point]. `O=C(COC(=O)CN1C(=O)c2ccccc2C1=O)NC1CCCC1`: the cell number change came to 18.1%. For the compound `CCCc1cc(C(N)=S)ccn1`, the cell number change is 4.52%. For `NC(=O)CSc1nc(O)cc(=O)n1-c1ccccc1`, the cell number change was -175%. Further, the concentration at half-maximal activity (AC50) under setting [2] is 25.9 µM [falling, single point]. For the same compound, the AC50 under setting [1] was 29.1 µM [falling, single point]. On to `COc1ccc(OC)c(N(CC(N)=O)S(=O)(=O)c2ccc(OC)c(OC)c2)c1`, for which the cell number change is -35.2%. Also, under setting [2], the AC50 is 0.651 µM [falling, full curve]. The half-maximal activity concentration (AC50) under setting [1] was 1.84 µM [falling, full curve]. Turning to `CC1CCCN(S(=O)(=O)c2ccc3c(c2)C(C)(C)C(=O)N3C)C1` (configuration not stated), the cell number change worked out at 9.22%. Moreover, under setting [1], the AC50 is 2.59 µM [rising, partial curve].

Consider `C=C(C)n1c(=O)n(Cc2ccccc2C)c2ccccc21`, for which the cell number change is -20.6%. Further, the AC50 under setting [2] is 1.16 µM [falling, full curve, poor fit]. For `COc1cccc(CNC(=O)c2ccc(C3SCCS3)cc2)c1`, the cell number change is -16.5%. Under setting [1], the AC50 was 29.1 µM [falling, single point]. Take `Cc1cccc(-c2nnc(-c3ccc(N)cc3)o2)c1`: the cell number change is -9.44%. In addition, the half-maximal activity concentration (AC50) under setting [1] is 6.51 µM [falling, partial curve].

Regarding `Cc1ccc(C)c(-n2c(-c3ccc4c(c3)OCO4)n[nH]c2=S)c1`, the cell number change was -18.2%. Also, under setting [1], the half-maximal activity concentration (AC50) was 0.731 µM [falling, single point].

Regarding `CC(C)c1ccc(NC(=O)c2cccnc2)cc1`, the cell number change is -14.6%. For the compound `Cc1ccccc1N(C(=O)c1snc(C(N)=O)c1N)C(C(=O)NCC1CCCO1)c1ccc(N(C)C)cc1` (configuration not stated), the cell number change is -23.1%. `c1ccc(-c2nc(NCc3ccco3)c3ccccc3n2)nc1`: the cell number change was -26.4%.

For the compound `CCc1ccc(N2C(=O)CC(N3CCC(C(=O)OC)CC3)C2=O)cc1` (configuration not stated), the cell number change was determined as 18.5%. Moreover, under setting [1], the AC50 was 23.1 µM [falling, single point].

With `Cc1ccc(F)cc1NC(=O)C1CC(=O)N(CCc2ccccc2)C1` (configuration not stated), the cell number change came out at 69.4%. The half-maximal activity concentration (AC50) under setting [2] is 4.61 µM [rising, full curve, poor fit]. On to `N=C1C(c2nc3ccccc3[nH]2)=C(O)CN1c1ccccc1`, for which the cell number change stood at 23.1%. Further, under setting [2], the concentration at half-maximal activity (AC50) was 1.84 µM [rising, partial curve, poor fit]. With `CCOc1cc(/C=N\NC(=O)c2ccc(NC(=O)C(C)(C)C)cc2)ccc1OC(=O)c1ccc(C)cc1`, the cell number change came to 15.9%. As to `COc1ccc(-c2nc(CN3CCN(c4ccccc4OC)CC3)c(C)o2)cc1`, the cell number change is -14.9%. In addition, the AC50 under setting [1] is 0.651 µM [falling, single point].

On to `CCOC(=O)C1(C)NC(c2ccc(O)cc2)C2C(=O)N(c3ccccc3)C(=O)C21` (configuration not stated), for which the AC50 under setting [1] was 29.1 µM [falling, single point]. As for `Nn1c(SCc2cccc(Oc3ccccc3)c2)nnc1C(F)(F)F`, the cell number change is 28.7%. Moreover, the AC50 under setting [1] is 18.4 µM [rising, single point].

As to `CSc1cccc(NS(=O)(=O)c2cc(Br)cnc2N)c1`, the cell number change turned out to be 20.1%.

For `Cc1ccc(CC(NC(=O)c2ccccc2)C(=O)NCC(=O)O)cc1` (configuration not stated) (Bz-[ξPhe(4-Me)]-Gly-OH), the cell number change was -18.4%. In addition, under setting [1], the concentration at half-maximal activity (AC50) is 25.9 µM [falling, partial curve]. On to `O=C(CN1CCN(c2ccc(O)cc2)CC1)Nc1ccc(-c2ccccc2)cc1`, for which the AC50 under setting [2] is 2.59 µM [rising, partial curve]. In the case of `Cc1ccc(-n2nnnc2SC(C(=O)c2c[nH]c3ccccc23)c2ccccc2)cc1` (configuration not stated), the cell number change is -15.4%. For the same compound, the AC50 under setting [1] is 13 µM [falling, single point].

Take `Cn1cc(S(=O)(=O)NCc2cccs2)c(=O)n(C)c1=O`: the cell number change was -15%. The half-maximal activity concentration (AC50) under setting [1] is 0.58 µM [falling, full curve, poor fit]. Regarding `Nc1nc(Cn2nnc(-c3ccccc3F)n2)nc(N2CCOCC2)n1`, the cell number change was 16.8%. Also, the AC50 under setting [1] was 2.06 µM [rising, full curve, poor fit]. As to `COc1ccc(C2NCCc3cc(OC)c(OC)cc32)cc1OC` (configuration not stated), the cell number change stood at 9.7%. Besides, under setting [1], the AC50 was 0.58 µM [falling, single point].

For `CCCCN(CC)CCCNC(=O)c1cn(CC(C)C)c(=O)c2c1c1ccccc1n2C`, the cell number change is 1.39%. In the case of `COc1ccc(C(c2c(C)n(C)n(-c3ccccc3)c2=O)c2c(C)n(C)n(-c3ccccc3)c2=O)cc1OC`, the cell number change is 34.3%. The AC50 under setting [1] was 29.1 µM [rising, single point]. With `COc1ccc(N2CCCn3c2nc2c3c(=O)n(CCCc3ccccc3)c(=O)n2C)cc1`, the cell number change is -17.9%. In addition, the half-maximal activity concentration (AC50) under setting [1] was 0.206 µM [rising, full curve]. As to `CC(=O)N1c2ccc(S(=O)(=O)N3CCC(C(=O)N4CCN(c5cccc(C(F)(F)F)c5)CC4)CC3)cc2CC1C` (configuration not stated), the cell number change is -36.7%. In addition, under setting [2], the AC50 was 29.1 µM [falling, single point]. Turning to `O=C(O)c1c2c(nc3ccccc13)CCCCC2`, the cell number change was -26%. The AC50 under setting [1] is 16.4 µM [falling, single point]. Regarding `Cc1ccc(N(Cc2cc(=O)[nH]c3ccccc23)C(=O)C(C)C)c(C)c1`, the cell number change is -17.9%. With `N#Cc1ccc(Cl)cc1NC(=O)COC(=O)c1ccc(S(=O)(=O)N2CCCC2)cc1`, the cell number change was 6.86%. For the same compound, the concentration at half-maximal activity (AC50) under setting [1] is 0.411 µM [falling, partial curve, poor fit].

In the case of `C=CCN1C(=O)/C(=C\C(C)=C\c2ccccc2)SC1=S`, the cell number change is -5.11%. Further, under setting [1], the half-maximal activity concentration (AC50) was 18.4 µM [rising, partial curve]. Turning to `COc1cccc(NC(=O)Nc2nnc(CC(=O)Nc3ccccc3)s2)c1`, the cell number change worked out at 14.3%. Also, the AC50 under setting [1] is 1.84 µM [rising, full curve]. Turning to `O=C(CNC(=O)c1ccccc1)OC1CCCCC1`, the cell number change was -2.04%. The AC50 under setting [2] was 3.66 µM [rising, single point].

For `Cc1ccc(S(=O)(=O)N2CCN(C(=O)Cn3nc(C(=O)O)c4ccccc4c3=O)CC2)cc1`, the cell number change turned out to be 35.1%. Under setting [1], the concentration at half-maximal activity (AC50) was 0.92 µM [falling, full curve, poor fit]. For `CCC(Sc1nc2ccc(C)cc2[nH]1)C(=O)O` (configuration not stated), under setting [1], the AC50 is 6.51 µM [falling, single point].

Turning to `COc1ccc(NC(=O)CSc2nc3n[nH]c(C)c3c(=N)n2-c2ccc(Cl)c(C)c2)cc1OC`, the cell number change was determined as 117%. Further, the AC50 under setting [2] was 20.6 µM [rising, partial curve].

On to `COc1ccc2ccccc2c1CN1CCCC(CO)C1` (configuration not stated), for which the cell number change was -2.48%. The AC50 under setting [1] is 0.0651 µM [falling, full curve, poor fit]. `C=CCN1C(=O)CSc2ccc(C(=O)NC3CCCCC3)cc21`: under setting [1], the AC50 was 4.11 µM [falling, single point].

With `COc1cc(C(C(=O)NC(C)(C)C)N(C(=O)CNC(=O)c2cccs2)c2cccnc2)cc(OC)c1OC` (configuration not stated), the cell number change was found to be 10.4%. Under setting [1], the AC50 was 29.1 µM [rising, single point]. For the compound `COC(=O)c1ccc(C2NC(C(=O)O)CS2)cc1` (configuration not stated), the cell number change is -22.9%. Moreover, the half-maximal activity concentration (AC50) under setting [2] is 3.66 µM [falling, full curve, poor fit]. Moreover, under setting [1], the AC50 is 0.731 µM [falling, full curve]. With `COCCCNC(=O)c1oc2ccc(S(=O)(=O)N3CCOCC3)cc2c1C`, the cell number change is 4.35%. Besides, the concentration at half-maximal activity (AC50) under setting [1] was 0.58 µM [falling, single point]. Turning to `CCCCOc1ccc(C(C)NC(=O)CCS(=O)(=O)Cc2ccccc2Cl)cc1` (configuration not stated), the cell number change is -11.9%. The AC50 under setting [1] is 29.1 µM [falling, single point]. Regarding `Cc1cccn2c(=O)c3cc(C(=O)NCc4ccc(F)cc4)c(=N)n(CC4CCCO4)c3nc12` (configuration not stated), the cell number change was -12.3%. Take `COCCCNC(=O)C1=CCN(S(=O)(=O)c2ccc(OC)cc2)CC1`: the cell number change is -6.49%. Moreover, under setting [1], the AC50 is 6.51 µM [falling, single point]. As for `COc1ccc(C(=O)N(C)c2ccccc2C(=O)NCCc2ccccc2)cc1`, the cell number change came to 9.9%. The AC50 under setting [1] was 20.6 µM [rising, partial curve]. For `CCN(C(=O)Cc1ccc(NC2=NC3CS(=O)(=O)CC3S2)cc1)c1ccccc1` (configuration not stated), the cell number change was 21.9%. Besides, the AC50 under setting [1] is 0.00517 µM [rising, full curve, poor fit]. Regarding `C(=C\c1ccccc1)/C=N/N1CCN(Cc2ccccc2)CC1`, the cell number change came out at 2.69%. Further, the AC50 under setting [1] was 0.13 µM [falling, full curve, poor fit]. `O=C(c1ccc(-n2cncn2)c([N+](=O)[O-])c1)N1CCN(S(=O)(=O)c2ccc(Cl)cc2)CC1`: the cell number change was -3.46%. Moreover, the concentration at half-maximal activity (AC50) under setting [1] is 0.0164 µM [rising, full curve, poor fit]. Regarding `CC(=O)Oc1ccc(/C=N/NC(=O)C2CCCN2S(=O)(=O)c2ccc(Cl)cc2)cc1` (configuration not stated), under setting [2], the AC50 was 6.51 µM [rising, single point]. Take `CCCNc1nc(-c2ccccc2)c(C(=O)OCC)cc1C#N`: the half-maximal activity concentration (AC50) under setting [1] is 6.51 µM [rising, single point]. `CCOC(=O)/C(C)=N/NC(=O)c1ccc([N+](=O)[O-])cc1`: the cell number change was 18.7%. The same measure, in the same setting: with `CCCN1C(=O)C(O)(c2c(C)[nH]c3ccccc23)c2ccccc21` (configuration not stated) the figure was 20.9%. On to `COc1ccc(/C=N/NC(=O)C2(O)c3ccccc3-c3ccccc32)cc1`, for which the cell number change is -42.9%. Moreover, the AC50 under setting [2] was 0.184 µM [falling, full curve, poor fit]. Besides, under setting [1], the AC50 is 13 µM [falling, partial curve].
